In article PMC7356578:
Results are given in words; binding and its absence hold for the method and conditions named. Some binding calls cover weakened binding; strength is not graded here.

By UniProt entry, the sequences of proteins in these tests, tags left out. Residues count along the entry.
UniProt P06870, residues 25-262: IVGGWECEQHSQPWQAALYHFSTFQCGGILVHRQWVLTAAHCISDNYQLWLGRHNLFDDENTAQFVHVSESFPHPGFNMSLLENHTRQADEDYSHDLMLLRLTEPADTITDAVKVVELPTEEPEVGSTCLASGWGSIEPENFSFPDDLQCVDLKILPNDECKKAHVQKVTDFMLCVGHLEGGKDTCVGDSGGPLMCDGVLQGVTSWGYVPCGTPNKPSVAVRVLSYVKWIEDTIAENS

Assays:
[1] = molecular target: Recombinant human tissue kallikrein 1 (KLK1), wild type (human) (UniProt P06870); experiment: SDS-stable covalent serpin-protease complex on reducing SDS-PAGE; as a1 but in the presence of low molecular weight heparin (LMWH); both purified
[2] = molecular target: Recombinant human tissue kallikrein 1 (KLK1), wild type (human) (UniProt P06870); experiment: SDS-stable covalent serpin-protease complex on reducing SDS-PAGE; 2 µg rKAL with 0.5 µg KLK1, 3 min, room temperature, 20 µL PBS, in the presence of 1 mM heparin oligosaccharide DP8, DP10 or DP12; both purified

binding [1]: binds weakly | binding [2]: binds weakly
B1: Recombinant human kallistatin (rKAL), wild type (protein, UniProt P29622 45-427)
chain: GSPSLKIAPANADFAFRFYYLIASETPGKNIFFSPLSISAAYAMLSLGACSHSRSQILEGLGFNLTELSESDVHRGFQHLLHTLNLPGHGLETRVGSALFLSHNLKFLAKFLNDTMAVYEAKLFHTNFYDTVGTIQLINDHVKKETRGKIVDLVSELKKDVLMVLVNYIYFKALWEKPFISSRTTPKDFYVDENTTVRVPMMLQDQEHHWYLHDRYLPCSVLRMDYKGDATVFFILPNQGKMREIEEVLTPEMLMRWNNLLRKRNFYKKLELHLPKFSISGSYVLDQILPRLGFTDLFSKWADLSGITKQQKLEASKSFHKATLDVDEAGTEAAAATSFAIKFFSAQTNRHILRFNRPFLVVIFSTSTQSVLFLGKVVDPTKP
